Experimental data reported in patent US20110311601A1, “ANTIMICROBIAL MEDICAL DEVICES” (priority 2010, published 2011).
These are yes or no findings as the source states them, for the method shown. Some results given as binding are weak or reduced against the parent protein; the word gives no strength.

The chains behind the UniProt entries cited, without tags or fusion partners. Where a name states a change or a piece, a line headed by the entry shows the natural chain unless it says otherwise.
UniProt P02453: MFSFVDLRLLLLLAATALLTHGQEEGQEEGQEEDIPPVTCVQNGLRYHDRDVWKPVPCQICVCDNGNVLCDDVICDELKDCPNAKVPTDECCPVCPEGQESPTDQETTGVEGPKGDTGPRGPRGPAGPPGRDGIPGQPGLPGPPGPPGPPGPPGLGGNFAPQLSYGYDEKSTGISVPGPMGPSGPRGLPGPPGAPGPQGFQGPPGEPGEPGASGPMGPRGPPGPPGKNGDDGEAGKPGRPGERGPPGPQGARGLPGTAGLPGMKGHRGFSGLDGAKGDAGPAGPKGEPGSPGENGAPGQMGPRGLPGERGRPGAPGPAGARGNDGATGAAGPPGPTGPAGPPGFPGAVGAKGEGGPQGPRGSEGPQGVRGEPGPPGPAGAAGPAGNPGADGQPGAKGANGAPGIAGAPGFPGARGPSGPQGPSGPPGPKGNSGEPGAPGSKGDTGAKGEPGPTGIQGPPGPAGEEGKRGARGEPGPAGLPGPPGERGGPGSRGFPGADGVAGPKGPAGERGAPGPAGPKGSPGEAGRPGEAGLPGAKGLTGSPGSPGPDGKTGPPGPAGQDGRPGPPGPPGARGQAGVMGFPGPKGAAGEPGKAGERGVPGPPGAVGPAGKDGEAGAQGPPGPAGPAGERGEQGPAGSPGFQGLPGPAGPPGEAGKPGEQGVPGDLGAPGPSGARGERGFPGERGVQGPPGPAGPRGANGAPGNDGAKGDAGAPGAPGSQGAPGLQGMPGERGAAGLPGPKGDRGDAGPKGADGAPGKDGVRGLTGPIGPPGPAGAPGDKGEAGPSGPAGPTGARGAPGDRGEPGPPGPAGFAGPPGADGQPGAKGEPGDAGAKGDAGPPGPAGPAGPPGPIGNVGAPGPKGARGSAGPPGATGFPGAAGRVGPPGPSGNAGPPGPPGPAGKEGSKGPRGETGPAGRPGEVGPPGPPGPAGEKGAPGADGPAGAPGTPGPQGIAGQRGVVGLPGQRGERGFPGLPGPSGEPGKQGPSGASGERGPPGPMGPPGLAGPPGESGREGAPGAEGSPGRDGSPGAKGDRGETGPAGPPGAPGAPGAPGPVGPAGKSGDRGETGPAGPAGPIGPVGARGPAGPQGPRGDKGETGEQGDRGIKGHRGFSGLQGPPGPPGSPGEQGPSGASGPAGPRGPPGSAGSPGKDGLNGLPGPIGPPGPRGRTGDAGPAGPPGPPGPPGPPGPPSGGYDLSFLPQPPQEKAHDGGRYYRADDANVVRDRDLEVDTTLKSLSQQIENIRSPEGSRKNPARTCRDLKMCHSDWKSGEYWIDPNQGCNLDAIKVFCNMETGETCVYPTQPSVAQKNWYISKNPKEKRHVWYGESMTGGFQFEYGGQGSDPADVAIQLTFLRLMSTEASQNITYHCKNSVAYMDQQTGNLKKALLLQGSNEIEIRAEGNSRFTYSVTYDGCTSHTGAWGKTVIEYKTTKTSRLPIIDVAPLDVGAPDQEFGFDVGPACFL
UniProt P02465: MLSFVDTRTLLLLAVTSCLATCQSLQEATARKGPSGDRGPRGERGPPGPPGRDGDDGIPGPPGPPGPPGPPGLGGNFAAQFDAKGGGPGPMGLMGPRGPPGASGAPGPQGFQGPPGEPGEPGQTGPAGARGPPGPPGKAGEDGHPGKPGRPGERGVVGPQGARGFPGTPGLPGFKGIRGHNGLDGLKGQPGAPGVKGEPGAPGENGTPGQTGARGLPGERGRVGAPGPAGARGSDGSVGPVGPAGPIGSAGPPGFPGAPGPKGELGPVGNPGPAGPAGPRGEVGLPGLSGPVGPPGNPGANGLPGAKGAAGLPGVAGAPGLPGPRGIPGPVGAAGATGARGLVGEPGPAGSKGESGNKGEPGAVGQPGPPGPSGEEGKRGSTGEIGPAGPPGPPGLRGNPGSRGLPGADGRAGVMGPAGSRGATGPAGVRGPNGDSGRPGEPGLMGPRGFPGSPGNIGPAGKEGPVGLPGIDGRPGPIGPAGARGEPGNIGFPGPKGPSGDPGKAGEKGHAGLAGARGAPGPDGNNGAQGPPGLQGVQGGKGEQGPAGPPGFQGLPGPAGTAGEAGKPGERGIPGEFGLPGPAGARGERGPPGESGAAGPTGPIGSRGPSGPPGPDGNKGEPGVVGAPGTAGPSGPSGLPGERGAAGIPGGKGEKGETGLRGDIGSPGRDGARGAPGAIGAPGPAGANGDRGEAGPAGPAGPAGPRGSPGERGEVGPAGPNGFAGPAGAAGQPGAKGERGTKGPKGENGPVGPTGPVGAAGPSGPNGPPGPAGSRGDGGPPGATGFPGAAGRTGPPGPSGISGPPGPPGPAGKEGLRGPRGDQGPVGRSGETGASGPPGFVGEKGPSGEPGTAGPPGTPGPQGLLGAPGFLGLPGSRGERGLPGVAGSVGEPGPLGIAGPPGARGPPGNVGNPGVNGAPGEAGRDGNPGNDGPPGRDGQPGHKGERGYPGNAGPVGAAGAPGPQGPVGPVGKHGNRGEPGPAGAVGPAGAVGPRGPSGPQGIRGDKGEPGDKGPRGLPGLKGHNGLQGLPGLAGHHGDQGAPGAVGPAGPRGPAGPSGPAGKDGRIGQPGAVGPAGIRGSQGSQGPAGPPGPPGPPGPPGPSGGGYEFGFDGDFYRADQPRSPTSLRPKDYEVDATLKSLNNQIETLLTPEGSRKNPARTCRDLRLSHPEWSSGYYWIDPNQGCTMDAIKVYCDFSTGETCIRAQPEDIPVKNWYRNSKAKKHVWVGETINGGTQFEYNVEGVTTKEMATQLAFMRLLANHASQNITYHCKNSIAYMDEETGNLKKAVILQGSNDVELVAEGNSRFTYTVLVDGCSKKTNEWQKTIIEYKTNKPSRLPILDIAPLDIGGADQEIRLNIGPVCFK

Assays:
[1] = target: T1, collagen scaffold (bovine collagen type I) (bovine) (UniProt P02453+P02465); test: agar diffusion assay, release from hβD2-coated collagen scaffold
[2] = target: T1, collagen scaffold (bovine collagen type I) (bovine); test: microdilution assay, release kinetics from hβD2-coated collagen scaffolds

- binding [1]: binds
- binding [2]: binds
Binder: GIGDPVTCLKSGAICHPVFCPRRYKQIGTCGLPGTKCCKKP [human β-defensin-2]
